Measured values reported in patent US7759375B2, “Epothilones C, D, E, and F, preparation and compositions” (priority 1996, dated 2010).

The chains behind the UniProt entries cited, without tags or fusion partners.
UniProt P02554, whole entry: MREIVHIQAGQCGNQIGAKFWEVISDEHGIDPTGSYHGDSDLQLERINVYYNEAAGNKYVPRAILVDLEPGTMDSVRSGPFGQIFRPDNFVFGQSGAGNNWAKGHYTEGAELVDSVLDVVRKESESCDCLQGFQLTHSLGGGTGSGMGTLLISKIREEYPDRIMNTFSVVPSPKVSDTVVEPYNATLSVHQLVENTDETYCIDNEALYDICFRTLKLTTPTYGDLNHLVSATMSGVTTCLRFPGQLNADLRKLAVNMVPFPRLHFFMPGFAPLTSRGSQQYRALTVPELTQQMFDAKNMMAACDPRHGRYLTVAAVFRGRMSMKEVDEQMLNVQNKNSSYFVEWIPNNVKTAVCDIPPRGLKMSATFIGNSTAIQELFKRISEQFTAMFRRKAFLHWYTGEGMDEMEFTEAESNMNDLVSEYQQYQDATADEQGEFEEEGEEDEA

Biological target: T1, purified tubulin from pigs' brain (Sus scrofa, UniProt P02554)
T1 construct: purified tubulin from pigs' brain; from tissue; host or cells: pig brain
Format: biochemical, pig
Details: 0.9 mg of tubulin/ml, 1 μM sample concentration
Description: The epothilones according to the invention were tested with cell cultures (Table 2) and for promotion of polymerization (Table 3).
The polymerization test is an in vitro test using purified tubulin from pigs' brain. Evaluation is carried out photometrically.

## C/C(=C\c1csc(CO)n1)[C@@H]1C[C@@H]2O[C@@H]2CCC[C@H](C)[C@H](O)[C@@H](C)C(=O)C(C)(C)[C@@H](O)CC(=O)O1 [Epothilone E]
Control = 100, lowest values indicate the best activity
  Time up to the half-maximal polymerization, Agent [%] (relative activity in % of the control): 31%
Average of experiments w-z, control 190 s
  Time up to the half-maximal polymerization of the control, Agent [s]: 59 s
Independent experiment w
  Time up to the half-maximal polymerization of the control, measurement w: 80 s
Independent experiment x
  Time up to the half-maximal polymerization of the control, measurement x: 60 s
Independent experiment y
  Time up to the half-maximal polymerization of the control, measurement y: 50 s
Independent experiment z
  Time up to the half-maximal polymerization of the control, measurement z: 45 s
